# Some of the results follow. Further columns of the screen follow, without active or inactive calls. Most of these compounds were active or inconclusive in the main read-out, so they are no random draw. Potencies come from curve fits of mixed quality, noted in brackets.
# Assay: IkB Signaling
# Details: ABC-DLBCL IkBa-CBG/CBR dual luciferase ratio (green luciferase fused to IkBa over red control in OCI-Ly3 lymphoma cells), 4 h
# How it was run: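 Curves were fitted separately to fusion (green), unfused (red) and ratio luminescence, then classed by r2, magnitude and activity. Cells: OCI-Ly3, 4 h compound plus doxycycline at 37C; 10 uM MG-132 defined full response.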
# [1] = measured here: control luc red channel unless noted
# [2] = measured here: IkB-luc green channel
# [3] = measured here: control luc red channel
smiles,measurement,setting,value
Cc1ccc(C)c(OCC(=O)Nc2ccc(S(=O)(=O)Nc3onc(C)c3C)cc2)c1C,AC50,[1],"10 µM [falling, partial curve]"
CCCC1C(c2ccco2)NC(c2ccco2)CC1(C)O (centres undefined),AC50,[1],"10 µM [falling, partial curve]"
CCN(CCCNC(=O)CSc1cc(=O)n(CC)c2ccccc12)c1cccc(C)c1,AC50,[1],"12.6 µM [falling, partial curve]"
CCOc1ccc(CCNC(=O)c2ccc(CS(=O)Cc3cccc(Cl)c3)o2)cc1 (centres undefined),AC50,[1],"31.6 µM [falling, single point]"
Cc1ccc2c(=O)c(C(=O)c3ccc(Cl)cc3)cn(CC(=O)NC3CCCCC3)c2n1,AC50,[1],"7.94 µM [falling, partial curve]"
O=S(=O)(c1ccc(F)cc1)N(Cc1nc(-c2ccc(Cl)cc2)no1)C1CCCCC1,AC50,[1],"12.6 µM [falling, partial curve, poor fit]"
O=C(Nc1c(C(=O)O)oc2ccccc12)c1ccc(C(F)(F)F)cc1,AC50,[2],"3.98 µM [rising, single point]"
same,AC50,[3],"1 µM [rising, partial curve]"
Cc1cccc(Nc2ncc3c(n2)CC(C)CC3=O)c1 (centres undefined),AC50,[1],"12.6 µM [falling, partial curve]"
CCOc1ccc(C(=O)Nc2ccc(S(=O)(=O)Nc3nc(C)cc(C)n3)cc2)cc1OC,AC50,[1],"12.6 µM [falling, partial curve, poor fit]"
COc1ccc(N(CC(=O)Nc2cc(C)ccc2C)S(=O)(=O)c2ccc(OC)c(OC)c2)cc1,AC50,[1],"20 µM [falling, partial curve]"
O=C(CN1CCN(C(=O)c2ccco2)CC1)Nc1ccccc1-c1ccccc1,AC50,[1],"10 µM [falling, partial curve]"
O=C(Nc1ccc(F)cc1F)c1ccc2c(O)c(S(=O)(=O)c3ccc(Cl)cc3)c(=O)[nH]c2c1,AC50,[1],"25.1 µM [falling, single point]"
COc1cc(NC(=O)CSc2nc3nc(C)c(Cc4ccc(C)cc4)c(C)n3n2)cc(OC)c1OC,AC50,[1],"25.1 µM [falling, partial curve]"
CC(=O)c1cc(-c2ccccc2)n(CCC(=O)Nc2ccc(C)cc2C)c1C,AC50,[1],"12.6 µM [rising, partial curve]"
Cc1ccc(C2C(C#N)=C(N)SC(N)=C2C#N)cc1,AC50,[1],"31.6 µM [falling, single point]"
O=C(CN1CCN(c2ccc(F)cc2)CC1)Nc1nnc(-c2ccccc2)s1,AC50,[1],"15.8 µM [falling, partial curve]"
COC(=O)c1c(NC(=O)Nc2ccc(Cl)cc2)sc(C)c1C,AC50,[1],"3.98 µM [falling, full curve, poor fit]"
Cc1noc(C)c1COC(=O)c1cccc(S(=O)(=O)N2c3ccccc3CC2C)c1 (centres undefined),AC50,[1],"12.6 µM [falling, partial curve]"
COc1ccc(NC(=O)/C=C\c2ccc(Cl)cc2)cc1,AC50,[1],"5.01 µM [falling, full curve]"
Cc1ccc2c(c1)N(C(=O)Nc1cccc(C)c1C)CCO2,AC50,[1],"12.6 µM [falling, partial curve]"
CS(=O)(=O)N1CCc2cc(C(=O)N3CCN(c4ccccc4)CC3)ccc21,AC50,[1],"39.8 µM [falling, single point]"
CC1CCC(N2CC(=O)N(C3CCCCC3)C(c3ccc(F)cc3)C2=O)CC1 (centres undefined),AC50,[1],"39.8 µM [falling, partial curve]"
CCCc1nnc(NC(=O)c2cc(=O)c3cc(Cl)ccc3o2)s1,AC50,[1],"0.794 µM [rising, full curve, poor fit]"
Cc1ccc(-n2nc(C)c3c2OC(N)=C(C#N)C3c2ccncc2)cc1 (centres undefined),AC50,[1],"3.98 µM [falling, partial curve] [measured here: IkB-luc green channel]"
CCC(=O)N1CCc2cc(S(=O)(=O)NC(Cc3ccccc3)C(=O)Nc3cccc(OC)c3)ccc21 (centres undefined),AC50,[1],"10 µM [falling, partial curve]"
CCOC(=O)c1cc(S(=O)(=O)N2CCN(c3ccc(C)cc3C)CC2)[nH]n1,AC50,[1],"20 µM [falling, partial curve]"
CCOc1ccccc1Nc1ncnc2c1cnn2-c1ccccc1,AC50,[1],"12.6 µM [falling, partial curve]"
Cc1nc2scc(C)n2c(=O)c1S(=O)(=O)N1CCN(c2cccc(C(F)(F)F)c2)CC1,AC50,[1],"3.16 µM [falling, partial curve, poor fit]"
CCCOc1ccc(C(=O)Nc2ccc(Cl)c(-c3nc4ncccc4o3)c2)cc1,AC50,[1],"6.31 µM [falling, partial curve]"
Cc1ccc(-c2noc(CCCC(=O)NCc3ccco3)n2)cc1,AC50,[1],"25.1 µM [falling, single point]"
Cc1c(-c2nsc(NC(=O)c3cccc(Cl)c3)n2)nnn1-c1ccccc1C(F)(F)F,AC50,[1],"15.8 µM [falling, partial curve]"
CCOc1ccc(CCNC(=O)CCc2c(C)nc3cc(-c4ccccc4OC)nn3c2C)cc1,AC50,[1],"1 µM [falling, partial curve]"
CCCCn1c(NCc2cc(Cl)ccc2O)nc2ccccc21,AC50,[1],"31.6 µM [falling, partial curve, poor fit]"
COc1ccc(CNCCC(c2ccccc2)c2ccc3c(c2)OCO3)cc1 (centres undefined),AC50,[1],"31.6 µM [falling, single point]"
CCCC1=Nc2cc(C(=O)NCCc3ccccc3)ccc2Sc2ccc(C)cc21,AC50,[2],"5.01 µM [rising, partial curve]"
same,AC50,[3],"39.8 µM [falling, single point]"
COc1ccccc1NC1=C(C)C(=O)CC1,AC50,[1],"25.1 µM [rising, partial curve] [measured here: IkB-luc green channel]"
COc1ccccc1-c1c(C)nn2c(N3CCCCCC3)cc(C)nc12,AC50,[1],"25.1 µM [falling, partial curve]"
COc1cccc(-c2nc(SCC(=O)NC3CCCC3)c(-c3ccccc3)[nH]2)c1,AC50,[1],"31.6 µM [falling, partial curve]"
CCOc1ccc(NC(=O)/C=C\C(=O)N(c2ccc(C(C)C)cc2)C(C(=O)NCc2ccco2)c2ccc(F)cc2)cc1 (centres undefined),AC50,[1],"15.8 µM [falling, partial curve]"
COc1ccc(-c2cnn3c(C)cc(C)nc23)cc1OC,AC50,[1],"2 µM [rising, partial curve, poor fit]"
CCOc1ccc(-c2nc(SCC(=O)NC3CCCC3)c(-c3ccccc3)[nH]2)cc1OC,AC50,[1],"12.6 µM [falling, partial curve]"
COc1ccc(-c2nnc(SCc3cccc(Cl)c3)o2)cc1,AC50,[1],"0.0251 µM [rising, full curve, poor fit]"
COc1ccc(NC(=O)c2c(NC(=O)c3ccc(Br)cc3)sc3c2CCCC3)cc1,AC50,[1],"1 µM [falling, full curve]"
Cc1ccc(O)c(NC(=O)c2cc(-c3ccccc3O)no2)c1,AC50,[1],"39.8 µM [falling, single point]"
CCOc1ccccc1NC(=O)Cc1noc2ccc(C)cc12,AC50,[1],"39.8 µM [falling, single point]"
CCOc1ccc2nc(NC(=O)c3nc(SC)ncc3Cl)sc2c1,AC50,[1],"0.0631 µM [falling, full curve, poor fit]"
COc1cc(NC(=O)c2ccco2)c(OC)cc1NC(=O)c1cc(OC)c(OC)c(OC)c1,AC50,[1],"3.16 µM [falling, partial curve]"
O=C(Cn1cnc2ccccc21)OCC(=O)N1CCc2ccccc2C1,AC50,[1],"5.01 µM [rising, single point]"
COc1cc(NC(=O)c2cn(C3CCCC3)c(=O)c3c2c2ccccc2n3C)cc(OC)c1OC,AC50,[1],"7.94 µM [falling, full curve]"
CC(=O)C1=C(c2ccc(Cl)cc2)N(C(C)=O)n2c(nnc2C2CCCCC2)S1,AC50,[1],"25.1 µM [falling, partial curve]"
Cc1ccc(Cl)cc1N(C)C(=O)c1cn(C2CCCCC2)c(=O)c2c1c1ccccc1n2C,AC50,[1],"25.1 µM [falling, partial curve]"
Cc1ccc(N(CC(=O)Nc2cccc(Cl)c2)S(=O)(=O)c2cccs2)cc1,AC50,[1],"6.31 µM [falling, partial curve]"
Cc1ccc2c(c1)N(CCC(=O)NCc1ccccc1Cl)C(=O)CO2,AC50,[1],"39.8 µM [falling, single point]"
Cc1ccc2onc(CC(=O)Nc3ccc(C(C)C)cc3)c2c1,AC50,[1],"10 µM [falling, partial curve]"
O=c1c2oc3ccccc3c2n(Cc2ccccc2F)c(=O)n1Cc1ccccc1,AC50,[1],"0.2 µM [rising, full curve]"
COc1ccc(N(C(=O)c2cccc(C)c2)S(=O)(=O)c2ccc(Cl)cc2)cc1,AC50,[1],"3.98 µM [falling, full curve, poor fit]"
Cc1c(NC(=O)Nc2ccccc2C(F)(F)F)sc2nc3n(c(=O)c12)CCC(C)CC3 (centres undefined),AC50,[1],"15.8 µM [falling, partial curve]"
COc1ccc2nc(N(Cc3cccnc3)C(=O)C3CCCCC3)sc2c1,AC50,[1],"39.8 µM [falling, single point]"
COc1cccc(C2C(C(=O)Nc3ccc(C)cc3C)=C(C)Nc3nc4ccccc4n32)c1OC (centres undefined),AC50,[1],"25.1 µM [falling, partial curve, poor fit]"
CC1(C)C(=O)N(CC(=O)Nc2ccc(Br)cc2F)c2ccccc21,AC50,[1],"20 µM [falling, partial curve, poor fit]"
C=C(C)Cn1c(=O)c2c(nc3n2CCN3c2ccc(F)cc2)n(C)c1=O,AC50,[1],"39.8 µM [falling, single point]"
CCOc1ccc(NCc2cccn2-c2nnc(N3CCC(C(=O)NCCOC)CC3)s2)cc1,AC50,[1],"31.6 µM [falling, single point]"

# Shown with tabs: part of the list above.
smiles	measurement	setting	value
CCN(CCCNC(=O)CSc1cc(=O)n(CC)c2ccccc12)c1cccc(C)c1	AC50	[1]	12.6 µM [falling, partial curve]
CCOc1ccc(CCNC(=O)c2ccc(CS(=O)Cc3cccc(Cl)c3)o2)cc1 (centres undefined)	AC50	[1]	31.6 µM [falling, single point]
O=S(=O)(c1ccc(F)cc1)N(Cc1nc(-c2ccc(Cl)cc2)no1)C1CCCCC1	AC50	[1]	12.6 µM [falling, partial curve, poor fit]
O=C(CN1CCN(C(=O)c2ccco2)CC1)Nc1ccccc1-c1ccccc1	AC50	[1]	10 µM [falling, partial curve]
O=C(Nc1ccc(F)cc1F)c1ccc2c(O)c(S(=O)(=O)c3ccc(Cl)cc3)c(=O)[nH]c2c1	AC50	[1]	25.1 µM [falling, single point]
CC(=O)c1cc(-c2ccccc2)n(CCC(=O)Nc2ccc(C)cc2C)c1C	AC50	[1]	12.6 µM [rising, partial curve]
O=C(CN1CCN(c2ccc(F)cc2)CC1)Nc1nnc(-c2ccccc2)s1	AC50	[1]	15.8 µM [falling, partial curve]
CCOC(=O)c1cc(S(=O)(=O)N2CCN(c3ccc(C)cc3C)CC2)[nH]n1	AC50	[1]	20 µM [falling, partial curve]
Cc1ccc(O)c(NC(=O)c2cc(-c3ccccc3O)no2)c1	AC50	[1]	39.8 µM [falling, single point]
CC(=O)C1=C(c2ccc(Cl)cc2)N(C(C)=O)n2c(nnc2C2CCCCC2)S1	AC50	[1]	25.1 µM [falling, partial curve]
Cc1ccc(N(CC(=O)Nc2cccc(Cl)c2)S(=O)(=O)c2cccs2)cc1	AC50	[1]	6.31 µM [falling, partial curve]
COc1cccc(C2C(C(=O)Nc3ccc(C)cc3C)=C(C)Nc3nc4ccccc4n32)c1OC (centres undefined)	AC50	[1]	25.1 µM [falling, partial curve, poor fit]

# Reference: PubChem BioAssay AID445 (National Center for Advancing Translational Sciences (NCATS), 2006)
